According to patent US8653000B2, “Imine substituted 2,4-diaryl-pyrroline derivatives as pesticides” (BASF SE, priority 2010, dated 2014):
Some of these results come from one statement about several compounds together. At least one structure is not confirmed: it was looked up by name or label, or the drawing left a doubt.

Legend:
Format in all cases: in vivo
[1] = system: Cotton Aphid (Aphis Gossypii); assay: Cotton aphid spray test on infested cotton plants; conditions: at 300 ppm; infested cotton plants sprayed; determined after 5 days
[2] = system: Mediterranean fruitfly (Ceratitis capitata); assay: Mediterranean fruitfly microtiter plate test on insect diet with eggs; conditions: at 2500 ppm; sprayed onto insect diet; egg and larval mortality after 5 days
Method: B.5 Mediterranean Fruitfly (Ceratitis Capitata)
For evaluating control of Mediterranean fruitfly (Ceratitis capitata) the test unit consisted of microtiter plates containing an insect diet and 50-80 C. capitata eggs.
(§1) The compounds were formulated using a solution containing 75% v/v water and 25% v/v DMSO. Different concentrations of formulated compounds were sprayed onto the insect diet at 5 μl, using a custom built micro atomizer, at two replications.
(§2) After application, microtiter plates were incubated at about 28±1° C. and about 80±5% relative humidity for 5 days. Egg and larval mortality was then visually assessed.

[3] = system: tobacco budworm (Heliothis virescens); assay: Tobacco budworm microtiter plate test on insect diet with eggs; conditions: at 2500 ppm; sprayed onto insect diet; egg and larval mortality after 5 days
Method: B.11 Tobacco Budworm (Heliothis Virescens) I
as §1, with “For evaluating control of tobacco budworm (Heliothis virescens) the test unit consisted of 96-well-microtiter plates containing an insect diet and 15-25 H. virescens eggs. The” for “The”, “at 10” for “at 5”
as §2

[4] = system: Red Spider Mite (Tetranychus Kanzawai); assay: Red spider mite spray test on potted cowpea beans; conditions: at 500 ppm; cowpea beans sprayed; after 72 h
Method: B.14 Red Spider Mite (Tetranychus Kanzawai)
The active compound was dissolved at the desired concentration in a mixture of 1:1 (v/v) distilled water:acetone. A surfactant (Alkamuls® EL 620) was added at the rate of 0.1% (v/v).
Potted cowpea beans of 7-10 days of age were cleaned with tap water and sprayed with 5 ml of the test solution using air driven hand atomizer. The treated plants were allowed to air dry and afterwards inculated with 20 or more mites by clipping a cassaya leaf section with known mite population. Treated plants were placed inside a holding room at about 25-27° C. and about 50-60% relative humidity.
Mortality was determined by counting the live mites 72 HAT. Percent mortality was assessed after 72 h.

[5] = system: Southern Armyworm (Spodoptera Eridania); assay: Southern armyworm spray test on lima bean plants; conditions: at 1 ppm; lima bean foliage sprayed; 4 days after treatment
Method: B.9 Southern Armyworm (Spodoptera Eridania)
The active compounds were formulated in cyclohexanone as a 10,000 ppm solution supplied in tubes. The tubes were inserted into an automated electrostatic sprayer equipped with an atomizing nozzle and they served as stock solutions for which lower dilutions were made in 50% acetone:50% water (v/v). A nonionic surfactant (Kinetic®) was included in the solution at a volume of 0.01% (v/v).
Lima bean plants (variety Sieva) were grown 2 plants to a pot and selected for treatment at the 1st true leaf stage. Test solutions were sprayed onto the foliage by an automated electrostatic plant sprayer equipped with an atomizing spray nozzle. The plants were dried in the sprayer fume hood and then removed from the sprayer. Each pot was placed into perforated plastic bags with a zip closure. About 10 to 11 armyworm larvae were placed into the bag and the bags zipped closed. Test plants were maintained in a growth room at about 25° C. and about 20-40% relative humidity for 4 days, avoiding direct exposure to fluorescent light (24 hour photoperiod) to prevent trapping of heat inside the bags. Mortality and reduced feeding was assessed 4 days after treatment, compared to untreated control plants.

[6] = system: Diamond Back Moth (Plutella Xylostella); assay: Diamond back moth leaf-dip test on Chinese cabbage; conditions: at 500 ppm, mortality recorded 24, 72 and 120 hours after treatment
Method: B.3 Diamond Back Moth (Plutella Xylostella)
Leaves of Chinese cabbage were dipped in test solution and air-dried. Treated leaves were placed in petri dished lined with moist filter paper. Mortality was recorded 24, 72, and 120 hours after treatment.

[7] = system: Orchid Thrips (Dichromothrips corbetti); assay: Orchid thrips floral-immersion test; conditions: at 500 ppm, after 4 days
Method: B.6 Orchid Thrips (Dichromothrips corbetti)
Dichromothrips corbettiadults used for bioassay were obtained from a colony maintained continuously under laboratory conditions. For testing purposes, the test compound was diluted to a concentration of 500 ppm (wt compound: vol diluent) in a 1:1 mixture of acetone:water (vol:vol), plus 0.01% vol/vol Kinetic® surfactant.
Thrips potency of each compound was evaluated by using a floral-immersion technique. Plastic petri dishes were used as test arenas. All petals of individual, intact or chid flowers were dipped into treatment solution and allowed to dry. Treated flowers were placed into individual petri dishes along with 10-15 adult thrips. The petri dishes were then covered with lids. All test arenas were held under continuous light and a temperature of about 28° C. for duration of the assay. After 4 days, the numbers of live thrips were counted on each flower, and along inner walls of each petri dish. The level of thrips mortality was extrapolated from pre-treatment thrips numbers.

[8] = system: green peach aphid (Myzus persicae); assay: Green peach aphid systemic test, artificial diet in 96-well plates; conditions: at 2500 ppm, 3 days
Excerpt: B.4 Green Peach Aphid (Myzus Persicae)
For evaluating control of green peach aphid (Myzus persicae) through systemic means the test unit consisted of 96-well-microtiter plates containing liquid artificial diet under an artificial membrane.
The compounds were formulated using a solution containing 75% v/v water and 25% v/v DMSO. Different concentrations of formulated compounds were pipetted into the aphid diet, using a custom built pipetter, at two replications.
After application, 5-8 adult aphids were placed on the artificial membrane inside the microtiter plate wells. The aphids were then allowed to suck on the treated aphid diet and incubated at about 23±1° C. and about 50±5% relative humidity for 3 days. Aphid mortality and fecundity was then visually assessed.

[9] = system: boll weevil (Anthonomus grandis); assay: Boll weevil microtiter plate test on insect diet with eggs; conditions: at 2500 ppm; sprayed onto insect diet; egg and larval mortality after 5 days
Method: B.12 Boll Weevil (Anthonomus Grandis)
For evaluating control of boll weevil (Anthonomus grandis) the test unit consisted of 24-well-microtiter plates containing an insect diet and 20-30 A. grandis eggs.
The compounds were formulated using a solution containing 75% v/v water and 25% v/v DMSO. Different concentrations of formulated compounds were sprayed onto the insect diet at 20 μl, using a custom built micro atomizer, at two replications. After application, microtiter plates were incubated at about 23±1° C. and about 50±5% relative humidity for 5 days. Egg and larval mortality was then visually assessed.

[10] = system: vetch aphid (Megoura viciae); assay: Vetch aphid test on broad bean leaf disks in 24-well plates; conditions: at 2500 ppm; sprayed onto leaf disks; 5 days
Method: B.10 Vetch Aphid (Megoura Viciae)
For evaluating control of vetch aphid (Megoura viciae) through contact or systemic means the test unit consisted of 24-well-microtiter plates containing broad bean leaf disks.
The compounds were formulated using a solution containing 75% v/v water and 25% v/v DMSO. Different concentrations of formulated compounds were sprayed onto the leaf disks at 2.5 μl, using a custom built micro atomizer, at two replications.
After application, the leaf disks were air-dried and 5-8 adult aphids placed on the leaf disks inside the microtiter plate wells. The aphids were then allowed to suck on the treated leaf disks and incubated at about 23±1° C. and about 50±5% relative humidity for 5 days. Aphid mortality and fecundity was then visually assessed.

[11] = system: Cowpea Aphid (Aphis Craccivora); assay: Cowpea aphid spray test on potted cowpea plants; conditions: at 500 ppm; cowpea plants sprayed; population reduction assessed after 24, 72 and 120 hours
Method: B.2 Cowpea Aphid (Aphis Craccivora)
Potted cowpea plants colonized with approximately 100-150 aphids of various stages were sprayed after the pest population had been recorded. Population reduction was assessed after 24, 72, and 120 hours.

Measured: mortality in comparison with untreated controls

CNC(=O)NN=Cc1ccc(C2=NCC(c3cc(Cl)cc(Cl)c3)(C(F)(F)F)C2)cc1C (racemic) [Compound 1-4]
at least 75%: [1]

Cc1cc(C2=NCC(c3cc(Cl)cc(Cl)c3)(C(F)(F)F)C2)ccc1C=NNC(=O)NC1CC1 (racemic) [Compound 1-5]
at least 75%: [1]

O=C(NN=Cc1ccc(C2=NCC(c3cc(Cl)cc(Cl)c3)(C(F)(F)F)C2)cc1Cl)NC1CC1 (racemic) [Compound 2-5]
at least 75%: [1]

CCNC(=O)NN=Cc1ccc(C2=NCC(c3cc(Cl)cc(Cl)c3)(C(F)(F)F)C2)cc1C (centres unmarked) [Compound 1-1, 4-[4-(3,5-dichloro-phenyl)-4-trifluoromethyl-4,5-dihydro-3H-pyrrol-2-yl]-2-methyl-benzaldehyde-ethylsemicarbazone]
not listed: [1] | [11]
at least 75%: all other assays above

CCNC(=S)NN=Cc1ccc(C2=NCC(c3cc(Cl)cc(Cl)c3)(C(F)(F)F)C2)cc1C (centres unmarked) [Compound 1-2, 4-[4-(3,5-dichloro-phenyl)-4-trifluoromethyl-4,5-dihydro-3H-pyrrol-2-yl]-2-methyl-benzaldehyde-ethylthiosemicarbazone]
at least 75%: [2] | [3] | [11] | [9]

CCNC(=O)NN=Cc1ccc(C2=NCC(c3cc(Cl)cc(Cl)c3)(C(F)(F)F)C2)cc1Cl (centres unmarked) [Compound 2-1, 4-[4-(3,5-dichloro-phenyl)-4-trifluoromethyl-4,5-dihydro-3H-pyrrol-2-yl]-2-chloro-benzaldehyde-ethylsemicarbazone]
not listed: [11]
at least 75%: all other assays above
